Measurements from the supplement of paper PMC12067093, “Discovery and optimisation of a covalent ligand for TRIM25 and its application to targeted protein ubiquitination” (Chemical Science, 2025).
Some of the results follow.

Compound: Cc1cc(ccc1-c1ccccc1)C(=O)N1CCCN(CC1)C(=O)CCl [compound 10]
Assay: probe-labelled cysteine peptide fold change vs DMSO (competition) (log2 fold change); higher = less target engagement (more negative = stronger competition)
Conditions: 50 µM; THP-1; incubation time: 4 h
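Note: competitive profiling in live THP-1 cells: cysteine peptides tagged with an iodoacetamide desthiobiotin (IA-DTB) probe, intensity after compound treatment relative to DMSO-treated cells.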

Target	probe-labelled cysteine peptide fold change
HPS1_Q92902_165_LREQEQCFAVEALER (UniProt Q92902)	-0.0513
HUWE1_Q7Z6Z7_1252_AAFTCIK (UniProt Q7Z6Z7)	0.142
HUWE1_Q7Z6Z7_1278_MAESMLAILCHILR (UniProt Q7Z6Z7)	0.213
HTATSF1_O43719_462_EAEEGCPEK (UniProt O43719)	-0.212
HNRNPLL_Q8WVV9_84_GLCESVVEADLVEALEK (UniProt Q8WVV9)	-0.18
HTATIP2_Q9BUP3_90_NVNQEVVDFEKLDDYASAFQGHDVGFCCLGTTR (UniProt Q9BUP3)	-0.618
HNRNPK_P61978_184+185_LFQECCPHSTDRVVLIGGKPDR (UniProt P61978)	-1.28
HSF1_Q00613_378_CLSVACLDK (UniProt Q00613)	-0.54
HNRNPDL_O14979_277_RGFCFITYTDEEPVK (UniProt O14979)	-0.138
HSPA4_P34932_213_NVVFVDMGHSAYQVSVCAFNR (UniProt P34932)	0.0938
HSD17B4_P51659_455_ELICHNQFSLFLVGSGGFGGK (UniProt P51659)	0.624
HRAS_P01112_80_TGEGFLCVFAINNTK (UniProt P01112)	0.305
HNRNPU_Q00839_389+391_TCNCETEDYGEK (UniProt Q00839)	-0.129
HSF1_Q00613_373+378_CLSVACLDK (UniProt Q00613)	-0.849
HSF1_Q00613_373_CLSVACLDK (UniProt Q00613)	-0.524
HSDL1_Q3SXM5_42_SITVICDFYSLIR (UniProt Q3SXM5)	-0.0821
